Laboratory results published in patent US20220259296A1.
These are yes or no findings as the source states them, for the method shown. Some results given as binding are weak or reduced against the parent protein; the word gives no strength.

The chains behind the UniProt entries cited, without tags or fusion partners. Residues count along the entry.
UniProt P01024, residues 23-1663: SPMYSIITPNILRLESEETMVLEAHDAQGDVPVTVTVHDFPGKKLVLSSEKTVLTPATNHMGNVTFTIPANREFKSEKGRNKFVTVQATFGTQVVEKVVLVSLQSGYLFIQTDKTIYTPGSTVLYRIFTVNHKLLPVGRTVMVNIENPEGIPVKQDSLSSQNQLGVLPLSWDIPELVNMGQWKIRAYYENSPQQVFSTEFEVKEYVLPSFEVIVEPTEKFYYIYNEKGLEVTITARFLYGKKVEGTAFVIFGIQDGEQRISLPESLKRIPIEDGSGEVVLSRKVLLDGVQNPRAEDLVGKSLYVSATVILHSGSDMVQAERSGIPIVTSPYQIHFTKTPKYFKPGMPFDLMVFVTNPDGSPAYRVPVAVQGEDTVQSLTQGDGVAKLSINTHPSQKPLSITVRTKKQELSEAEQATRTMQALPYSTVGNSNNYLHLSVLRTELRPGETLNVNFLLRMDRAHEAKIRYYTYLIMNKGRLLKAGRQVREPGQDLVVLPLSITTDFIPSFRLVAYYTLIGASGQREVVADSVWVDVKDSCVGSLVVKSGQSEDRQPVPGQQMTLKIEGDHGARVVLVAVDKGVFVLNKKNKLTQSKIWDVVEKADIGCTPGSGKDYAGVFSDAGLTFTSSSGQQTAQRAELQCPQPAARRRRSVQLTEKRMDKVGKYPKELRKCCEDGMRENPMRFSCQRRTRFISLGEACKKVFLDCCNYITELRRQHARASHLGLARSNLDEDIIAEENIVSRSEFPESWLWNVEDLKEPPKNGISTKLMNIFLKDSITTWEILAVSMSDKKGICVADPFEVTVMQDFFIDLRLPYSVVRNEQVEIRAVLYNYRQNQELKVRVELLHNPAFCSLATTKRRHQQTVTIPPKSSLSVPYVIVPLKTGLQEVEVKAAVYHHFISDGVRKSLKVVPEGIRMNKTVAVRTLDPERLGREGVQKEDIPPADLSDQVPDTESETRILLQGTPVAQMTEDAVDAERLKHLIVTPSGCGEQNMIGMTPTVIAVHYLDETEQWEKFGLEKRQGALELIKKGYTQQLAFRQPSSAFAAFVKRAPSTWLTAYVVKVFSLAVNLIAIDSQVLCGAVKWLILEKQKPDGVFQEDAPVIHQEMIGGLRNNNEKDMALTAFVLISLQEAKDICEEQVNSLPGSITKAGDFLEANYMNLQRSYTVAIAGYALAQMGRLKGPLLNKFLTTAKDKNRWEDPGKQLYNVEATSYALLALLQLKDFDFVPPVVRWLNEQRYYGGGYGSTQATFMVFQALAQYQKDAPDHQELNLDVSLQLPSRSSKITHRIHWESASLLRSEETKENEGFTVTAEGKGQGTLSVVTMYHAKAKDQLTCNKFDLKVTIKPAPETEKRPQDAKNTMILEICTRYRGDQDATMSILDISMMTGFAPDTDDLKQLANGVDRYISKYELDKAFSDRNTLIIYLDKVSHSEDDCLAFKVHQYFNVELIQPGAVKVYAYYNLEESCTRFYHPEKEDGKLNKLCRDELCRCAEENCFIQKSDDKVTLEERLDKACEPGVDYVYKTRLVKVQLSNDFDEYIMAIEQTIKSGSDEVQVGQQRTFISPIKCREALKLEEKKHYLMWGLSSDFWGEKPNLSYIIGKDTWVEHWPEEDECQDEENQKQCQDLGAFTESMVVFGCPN

Tests used:
[1] = biological target: human complement C3 (human) (UniProt P01024); assay: biolayer interferometry
[2] = biological target: human complement C3 (human) (UniProt P01024); assay: direct binding ELISA, C3 coated
[3] = biological target: human complement C3 (human) (UniProt P01024); assay: direct binding ELISA, purified native human C3 coated
[4] = biological target: human complement C3 (human) (UniProt P01024); assay: direct ELISA, plate coated with purified native human C3
[5] = biological target: human complement C3 (human) (UniProt P01024); assay: C3 binding ELISA with biotinylated antibody and competitor antibodies
[6] = biological target: human complement C3 (human) (UniProt P01024); assay: competition ELISA on human C3; competitor: biotinylated M0251 (panel title 'Competition with M0251')
[7] = biological target: human complement C3 (human) (UniProt P01024); assay: competition ELISA on human C3; competitor: biotinylated M0123 (panel title 'Competition with M0123')
[8] = biological target: human complement C3 (human) (UniProt P01024); assay: competition ELISA on human C3; competitor: biotinylated M0122 (panel title 'Competition with M0122')
[9] = biological target: human complement C3 (human) (UniProt P01024); assay: competition ELISA on human C3; competitor: biotinylated M0124 (panel title 'Competition with M0124')

Binder | binding [1] | binding [2] | binding [3] | binding [4] | binding [5] | binding [6] | binding [7] | binding [8] | binding [9]
M0123 (antibody, V domains shown) VH: QSVKESEGRLVTPGTPLTLTCTASGFTIGSYHMSWVRQAPGKGLEWIGIIYTDGNTDYANWAKGRFTISKTSTTMDLKMTSLTAADTATYFCARRGYADYGYTFNLWGQGTLVTISS VL: ELVLTQPASVQVNLGQTVSLTCTADTLSRNYASWYQQKPGQAPVLLIYRDTSRPSGVPDRFSGSSSGNTATLTISGAQAGDEADYYCATGDGSGSSYQFVFGGGTQLTVTG | – | – | – | – | binds | – | binds | – | –
M0122 (antibody, V domains shown) VH: QSVKESGGRLVTPGTPLTLTCTVSGFSLYNYAMNWVRQAPGKGLEWIGIINTDGNTNYASWAKGRFTISTTSSTTVDLKITSPTTEDTATYFCPRAVGYHHHALDPWGPGTLVTVSS VL: ELVLTQSPSVSAALGASAKLTCTLSSAHKTYTIDWYQQQQGEAPRYLMQLKSDGSYTKGTGVPDRFSGSSSGADRYLIIPSVQADDEADYYCGTDYGGGYVFGGGTQLTVTG | binds | binds | binds | binds | – | – | – | binds | –
M0124 (antibody, V domains shown) VH: QSVKESGGRLVTPGTPLTLTCTVSGIDLSRYWMNWVRQAPGKGLEWIGYITTNDKTYYANWAKGRYTISKTSSTTVDLKMTSLTTEDTATYFCARRSSGAYDIWGPGTLVTISS VL: QPVLTQSPSASATLGASAKLTCTLSSAHKTYYIEWYQQQQGEAPRYLMQLKSDGTYTKGTGVPDRFSGSSSGADRYLIISSVQAEDEADYICGVTGGNVYVFGGGTQLTVTG | binds | binds | binds | binds | – | – | – | – | binds

Now from value to binder:

binding [1] | binding [2] | binding [3] | binding [4] | binding [5] | binding [6] | binding [7] | binding [8] | binding [9] | Binder
binds | binds | binds | binds | binds | binds | binds | – | – | M0228 (VHH) VHH: EVQLVESGGGLVQAGGSLRLSCAASGRTINDYTMGWFRQAPGKDREFVSAINWRGSSTYYADSVKGRFTISRDNAKKTIYLQMNLLKPEDTAVYYCARQVSPYVELTATAAYWGQGTQVTVSS
– | – | – | – | binds | binds | binds | – | – | M0251 (VHH) VHH: EVQLVESGGGLVQAGGSLRLSCVASGHTFGNWAMGWFRQAPGKEREFVGAIRWSVGTTNYRDSVKGRFAISRDNARNTVYLQMNRLKPEDTAVYYCAAGTPFVLARINGYDYWGQGTQVTVSS
